According to patent publication US20260159583A1 (CHIA TAI TIANQING PHARMACEUTICAL GROUP, published 2026):
These are yes or no findings as the source states them, for the method shown. Some entries that bind do so weakly or less than the wild type.

Amino acid sequences for entries named in this document (tags omitted). A change or cut given only in a name is not applied to a line headed by its entry.
UniProt Q9NZD1: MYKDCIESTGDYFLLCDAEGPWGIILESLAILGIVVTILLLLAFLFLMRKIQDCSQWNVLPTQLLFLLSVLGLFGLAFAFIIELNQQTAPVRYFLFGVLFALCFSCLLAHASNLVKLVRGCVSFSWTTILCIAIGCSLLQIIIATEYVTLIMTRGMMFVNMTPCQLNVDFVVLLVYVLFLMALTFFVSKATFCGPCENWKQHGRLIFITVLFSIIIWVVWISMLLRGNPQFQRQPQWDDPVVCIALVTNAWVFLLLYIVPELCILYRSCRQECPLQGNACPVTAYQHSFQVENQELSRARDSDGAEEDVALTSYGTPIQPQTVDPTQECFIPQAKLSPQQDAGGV

What was measured:
human GPRC5D protein [1] = molecular target: T1, human GPRC5D protein (human, UniProt Q9NZD1 1-345); test: FACS on CHO-K1-hGPRC5D^hi cells, 4.1-3000 ng/mL
T1 construct: also called hGPRC5D

[2] = molecular target: full-length monkey GPRC5D (monkey (cyno)); test: FACS on CHO-K1-cynoGPRC5D cells, 4.6-10000 ng/ml
mouse GPRC5D (mouse) = molecular target: T2, mouse GPRC5D (mouse) (UniProt Q9JIL6); test: FACS on CHO-K1-murineGPRC5D cells, 4.6-10000 ng/ml
T2 sequence: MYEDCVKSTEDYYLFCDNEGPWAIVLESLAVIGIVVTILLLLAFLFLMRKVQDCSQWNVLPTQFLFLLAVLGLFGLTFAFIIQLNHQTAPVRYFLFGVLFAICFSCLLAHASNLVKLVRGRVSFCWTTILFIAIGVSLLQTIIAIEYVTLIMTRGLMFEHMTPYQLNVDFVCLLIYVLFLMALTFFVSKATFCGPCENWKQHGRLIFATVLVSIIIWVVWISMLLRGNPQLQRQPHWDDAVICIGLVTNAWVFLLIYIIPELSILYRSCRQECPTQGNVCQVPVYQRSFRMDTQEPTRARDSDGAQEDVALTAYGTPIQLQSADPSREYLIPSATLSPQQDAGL

human GPRC5D protein [3] = molecular target: T1, human GPRC5D protein; test: FACS on H929 and MM1S human myeloma cells, 4.1-1000 ng/ml
human GPRC5D protein [4] = molecular target: T1, human GPRC5D protein; test: FACS on CHO-K1-hGPRC5D^low cells, 4.1-3000 ng/mL; compared with BM-mAb

Measured: binding

B1: chimeric antibody Chi-128 (antibody, human IgG1, kappa, V domains shown)
VH: DVQLVESGGGLVQPGGSRKVSCAASGFTFSSFGMHWVRQAPEKGLEWVAYISRGSSTIYYADTVKGRFTISRDNPKNTLFLQMTSLRSEDTAMYYCARSGYGSSSYYFDYWGQGTTLTVSA
VL: ENVLTQSPAIMSASPREKVTMTCRASSSIRSSYLHWYQQKSGASPKLWIYSTSNLASGVPARFSGSGSGTSYSLTISSVEAEDAATYYCQQFSGYPLTFGGGTKLEIKR
binds: all assays above
